From PubChem BioAssay AID2549 (National Center for Advancing Translational Sciences (NCATS), 2010)
Several values for one entry are separate records, joined by “and”; a condition that tells them apart may be missing. Equal entries are not always repeated. Among all 240,000 compounds or so, about 1,300 (0.54%) were called active. The shares of active, inactive and inconclusive entries below differ from those in the screen. The call rests on the fitted dose curve; in most records, active means well fitted inhibition curve with a large enough effect; inconclusive means small, poorly fitted or top-dose-only effect; inactive means flat fitted curve, though single readings scatter. Where the call is inconclusive, the potency comes from a doubtful curve fit. More than one record can exist for a structure, and the calls need not agree.
Further: nearly all actives have a fitted effect of over 30% in size.
Potency means the concentration at half of the fitted maximal effect.
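Wherever activity, negative = inhibition is given: plate controls were vehicle for no effect and no enzyme for full effect.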

Chains of the proteins cited; added tags and fusions are not shown. Lines headed by an entry give the natural chain unless they say otherwise; changes in a name come on top.
UniProt P46063: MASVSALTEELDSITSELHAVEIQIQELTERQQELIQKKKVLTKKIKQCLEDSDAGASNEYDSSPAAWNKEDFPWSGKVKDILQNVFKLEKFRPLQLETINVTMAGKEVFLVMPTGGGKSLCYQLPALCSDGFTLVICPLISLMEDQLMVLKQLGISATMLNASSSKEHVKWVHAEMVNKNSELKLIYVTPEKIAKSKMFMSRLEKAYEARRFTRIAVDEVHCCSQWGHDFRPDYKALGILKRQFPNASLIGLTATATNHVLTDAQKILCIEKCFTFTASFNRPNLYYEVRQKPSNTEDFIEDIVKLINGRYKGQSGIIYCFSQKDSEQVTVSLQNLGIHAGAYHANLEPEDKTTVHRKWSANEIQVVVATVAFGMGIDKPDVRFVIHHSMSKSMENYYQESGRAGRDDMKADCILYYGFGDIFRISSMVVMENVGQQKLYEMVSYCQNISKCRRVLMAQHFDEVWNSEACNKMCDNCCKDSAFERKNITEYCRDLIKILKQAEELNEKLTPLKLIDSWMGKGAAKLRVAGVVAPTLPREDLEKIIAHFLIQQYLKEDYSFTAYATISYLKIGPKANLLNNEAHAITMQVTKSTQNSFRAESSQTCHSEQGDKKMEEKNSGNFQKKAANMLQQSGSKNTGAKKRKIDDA

What follows are molecules tested against ATP-dependent DNA helicase Q1 (Homo sapiens) (UniProt P46063) (assay: qHTS Assay for Inhibitors of RecQ-Like Dna Helicase 1 (RECQ1)). Conditions: RECQ1 DNA unwinding, red fluorescence kinetic read; activity, negative = inhibition: at 57.3 µM (top of the series); series mostly up to 57.3 µM.
Procedure, shortened: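 50 nM RECQ1T1 preincubated 15 min with compound in Tris pH 8.0 buffer with MgCl2, DTT, Tween-20 and 2.5 ug/ml poly(dI-dC); started with 200 nM TAMRA/BHQ-2 forked duplex and 2 mM ATP. Unwinding read as fluorescence (525/598 nm), two reads 2 h apart.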
In the case of `O=C(O)c1cccc(N/N=C/C2=C(Cl)c3cc(Cl)ccc3SC2)c1`, the Potency was inconclusive: 31.6 µM [inhibitor, single point]. In the case of `Cc1c(C)n(CCc2c[nH]c3ccccc23)ccc1=O`, the “activity, negative = inhibition” value was inactive: -6%. For `CCn1c2ccccc2c2nnc(SCC(=O)Nc3ccc4c(c3)OCO4)nc21`, the Potency was inconclusive: 14.1 µM [inhibitor, partial curve]. In the case of `CCN(C(=O)Cn1c(=O)n(-c2cc(OC)c(OC)c(OC)c2)c(=O)c2ccccc21)c1cccc(C)c1`, the Potency was inconclusive: 35.5 µM [inhibitor, partial curve]. In the case of `CC(C)Cn1c(N)c(C(=O)COC(=O)c2cc(C(F)(F)F)nc3ccccc23)c(=O)n(C)c1=O`, the Potency was inconclusive: 35.5 µM [inhibitor, single point]. With `CCN=c1scc(C)n1/N=C/c1ccc(O)c(O)c1O` the Potency was active: 25.1 µM. For `CCC(C(=O)N1CCN(c2cccc(Cl)c2)CC1)c1ccccc1` (stereo not given), the Potency was active: 25.1 µM. In the case of `CCCc1ccc(O)c(N=Cc2cc(Br)cc(OCC)c2O)c1`, the “activity, negative = inhibition” value was inactive: -3.77%. `Cc1nc2ncnn2c(N2CCN(C(=O)Cc3cccs3)CC2)c1C` was tested, and the Potency was inconclusive: 22.4 µM [inhibitor, partial curve]. For `O=C(CSc1nc2ncc(Cl)cc2[nH]1)c1ccc2c(c1)OCO2`, the Potency was inconclusive: 39.8 µM [inhibitor, single point]. `O=C(Cc1cccs1)Nc1ccc(-c2nnn(CC(=O)N3CCOCC3)n2)cc1` was tested, and the Potency was inconclusive: 31.6 µM [inhibitor, single point]. `Cc1ccsc1C=Nc1ccc(O)cc1` was tested, and the Potency was inconclusive: 35.5 µM [inhibitor, single point]. For `CCOc1ccc2[nH]c(=O)c(C(c3nnnn3Cc3ccco3)N3CCCC(C)C3)cc2c1` (stereo not given), the Potency was inconclusive: 39.8 µM [inhibitor, single point]. In the case of `O=C(COC(=O)C1CC2C=CC1C2)NCc1ccco1` (stereo not given), the Potency was active: 22.4 µM. With `O=C(COC(=O)CCC(=O)c1ccc(Cl)cc1)NCc1ccco1` the Potency was inconclusive: 39.8 µM [inhibitor, single point]. `CNC(=O)COC(=O)c1cc(-c2ccco2)nc2ccccc12` was tested, and the Potency was active: 22.4 µM. `COC(=O)C1C(=O)C2=C(CC1C)NC(=O)CC2c1ccc(F)cc1` (stereo not given) was tested, and the Potency was inconclusive: 39.8 µM [inhibitor, single point]. In the case of `COc1ccc(-c2nc3ccccc3c(=O)n2N)cc1`, the “outcome” value was “inactive”. With `COc1ccc2nc(-c3ccco3)c(-c3ccco3)nc2c1` the Potency was inconclusive: 14.1 µM [inhibitor, partial curve, poor fit]. `Cc1cc(NS(=O)(=O)c2ccc(Nc3nc(-c4sc(N)nc4C)cs3)cc2)no1` was tested, and the Potency was inconclusive: 39.8 µM [inhibitor, single point]. For `O=C(c1nc2ccccn2c1CN1CCN(c2ccccc2O)CC1)N1CCCC1`, the “activity, negative = inhibition” value was inactive: -6.61%. In the case of `O=C1OCCN1C(=O)[C@H]1[C@H](c2ccc(Cl)cc2)C(c2cccc(Cl)c2)=NN1c1ccc(Br)cc1`, the Potency was active: 25.1 µM. With `CCOC(=O)C1=C(O)/C(=C/c2ccc(-c3ccccc3C(=O)O)o2)SC1=Nc1ccc(C)cc1` the “outcome” value was “inactive”. For `Cc1ccc(NC(=O)N/C=C/c2ccco2)cc1C`, the Potency was inconclusive: 15.8 µM [inhibitor, partial curve]. With `O=c1c(O)c(-c2ccc(O)c(O)c2)oc2cc(O)ccc12` the Potency was active: 3.16 µM. For `O=S(=O)(Nc1nc2ccccc2nc1Nc1ccc(N2CCOCC2)cc1)c1cc(Cl)ccc1Cl`, the Potency was inconclusive: 39.8 µM [inhibitor, single point]. `COCCCNC(=S)N1CCN(C(=O)C(=O)Nc2ccc(C(=O)OC)cc2)CC1` was tested, and the Potency was inconclusive: 6.31 µM [inhibitor, single point]. In the case of `S=c1[nH]nc(COc2ccccc2)n1/N=C/C=C/c1ccco1`, the Potency was active: 31.6 µM. For `COc1ccc(/C=C/C2=CC3(C)CC2(C)C(c2ccc(OC)cc2)CC3=O)cc1` (stereo not given), the outcome was “inactive [at 11.5 µM]”. `Cc1cc(=O)[nH]c2ccccc12` was tested, and the “activity, negative = inhibition” value was inactive: -13.3%. In the case of `Cc1cc(/C=C2\C(=N)N3N=C(c4ccco4)SC3=NC2=O)c(C)n1Cc1ccccc1`, the Potency was inconclusive: 20 µM [inhibitor, partial curve, poor fit]. In the case of `O=C(O)CSc1cc(C(=O)c2ccccc2O)cn2c(=O)c3c(-c4ccccc4)csc3nc12`, the “activity, negative = inhibition” value was inactive: -22.4%. In the case of `COc1cccc(C2c3c(C)nn(-c4ccc([N+](=O)[O-])cc4)c3N=C3C(=O)Nc4ccccc4N32)c1` (stereo not given), the Potency was inconclusive: 39.8 µM [inhibitor, single point]. `CCOC(=O)NCc1ccc(S(=O)(=O)Nc2ccc(C)cc2)cc1` was tested, and the “activity, negative = inhibition” value was inactive: -4.7%. `C#CCN1C(=O)S/C(=C/C=C/c2ccc(N(C)C)cc2)C1=O` was tested, and the Potency was active: 25.1 µM. In the case of `COc1cc(/C=N/N=C2/NC(=O)C(CC(=O)O)S2)ccc1OCc1ccc(Cl)cc1` (stereo not given), the “activity, negative = inhibition” value was inactive: -4.56%. For `CC(=O)c1ccc(NC(=O)c2noc3c2CCC3)cc1`, the Potency was inconclusive: 39.8 µM [inhibitor, single point]. In the case of `COc1ccc(-c2nc3c(c4c2C[C@H](c2ccccc2)OC4)CN(S(=O)(=O)c2ccc4c(c2)OCCN4C)CC3)c(C)c1`, the outcome was “inactive [at 11.5 µM]”. For `Cc1ccc(/C=c2\sc3nc(-c4ccccc4Br)nn3c2=O)o1`, the Potency was inconclusive: 35.5 µM [inhibitor, single point]. With `N=C1/C(=C\c2ccc(SCc3ccco3)o2)C(=O)N=C2SC=NN12` the Potency was active: 8.91 µM. In the case of `CCOc1ccc2[nH]c(=O)c(C(c3nnnn3Cc3ccco3)N3CCN(C)CC3)cc2c1` (stereo not given), the Potency was active: 7.08 µM. `O=C(COC(=O)/C=C/c1ccco1)NCc1ccc2c(c1)OCO2` was tested, and the Potency was active: 1.12 µM. For `Cc1cc(-c2nc3c4c5c(sc4[nH]c(=O)n3n2)CCC5)c(C)o1`, the Potency was active: 12.6 µM. For `CC(=O)c1c(C)[nH]c(C(=O)Nc2ccc(C)c(S(=O)(=O)Nc3ccc(C)cc3C)c2)c1C`, the “activity, negative = inhibition” value was inactive: -3.55%. `Nc1c(C(=O)O)ccc2c1C(=O)c1ccccc1C2=O` was tested, and the Potency was inconclusive: 11.2 µM [inhibitor, partial curve]. In the case of `O=C(CNC(=O)c1cccs1)NCC(=O)OCc1ccccc1Cl`, the “activity, negative = inhibition” value was inactive: -2.87%. In the case of `CCn1c(SCC(=O)c2ccc(O)c(O)c2)nnc1-c1ccccc1`, the “activity, negative = inhibition” value was inactive: -22.3%. In the case of `CCOc1ccccc1NC(=S)NNS(=O)(=O)c1c(C)cc(C)cc1C`, the “activity, negative = inhibition” value was inactive: -5.92%. For `CCn1c(NC(=S)Nc2ccccc2)nc2ccccc21`, the Potency was inconclusive: 39.8 µM [inhibitor, partial curve]. With `Cc1cccc(Nc2nc(N)nc(CSc3nccc(C)n3)n2)c1` the Potency was inconclusive: 0.199 µM [inhibitor, partial curve, poor fit]. For `COc1ccc(/C=C2\C(=O)NC(=S)N2C(=O)c2ccc(F)cc2)cc1`, the Potency was inconclusive: 28.2 µM [inhibitor, single point]. In the case of `CC(CC(=O)Nc1ccc(Cl)c([N+](=O)[O-])c1)c1ccccc1` (stereo not given), the Potency was inconclusive: 39.8 µM [inhibitor, single point]. `COc1cc(C(=O)NS(=O)(=O)c2ccccc2C)ccc1Cc1cn(C)c2ccc(NC(=O)OC3CCCC3)cc12` was tested, and the Potency was inconclusive: 39.8 µM [inhibitor, single point]. With `N#CC(C#N)=C1C=CC=CN1/C(=C\c1ccccc1Cl)C(=O)c1ccccc1` the “activity, negative = inhibition” value was inactive: -10.7%. With `COc1cc(NS(=O)(=O)c2ccc(NC(=O)/C(=C/c3ccccc3Cl)NC(=O)c3ccccc3)cc2)nc(OC)n1` the Potency was inconclusive: 39.8 µM [inhibitor, single point]. In the case of `O=C(Nc1ccc(C(=O)Nc2ccc(C(=O)Nc3ccc(S(=O)(=O)O)c4cc(S(=O)(=O)O)cc(S(=O)(=O)O)c34)cc2)cc1)Nc1ccc(C(=O)Nc2ccc(C(=O)Nc3ccc(S(=O)(=O)O)c4cc(S(=O)(=O)O)cc(S(=O)(=O)O)c34)cc2)cc1`, the Potency was active: 14.1 µM and active: 6.31 µM. For `Oc1cc2c(c(Cl)c1O)CCNC[C@H]2c1ccccc1`, the Potency was inconclusive: 35.5 µM [inhibitor, partial curve]. With `O=C(CC12CC3CC(CC(Br)(C3)C1)C2)NC1=NCCS1` the Potency was inconclusive: 0.562 µM [inhibitor, full curve]. `Cc1ccccc1NC(=O)CN1C(=O)S/C(=C\c2cccn2-c2cccc(C(=O)O)c2)C1=O` was tested, and the Potency was inconclusive: 39.8 µM [inhibitor, single point]. In the case of `CCOCCCn1c(=S)[nH]c2cc(C(=O)NCCOC)ccc2c1=O`, the Potency was inconclusive: 39.8 µM [inhibitor, single point]. `CCCCc1nc(NCCNC(=O)c2ccco2)c(C#N)c2c1CSC(C)(C)C2` was tested, and the Potency was inconclusive: 28.2 µM [inhibitor, single point]. With `CCCS(=O)(=O)N1CCCC(C(=O)NCCCN(C)Cc2ccccc2)C1` (stereo not given) the Potency was inconclusive: 0.447 µM [inhibitor, partial curve, poor fit]. `Cn1c(N)c(C(=O)COC(=O)c2cc(-c3ccco3)nc3ccccc23)c(=O)n(Cc2ccccc2)c1=O` was tested, and the Potency was inconclusive: 28.2 µM [inhibitor, single point]. With `CCCc1c(C)[nH]c2ccc(C(=O)O)cc2c1=S` the Potency was active: 14.1 µM. In the case of `CCn1c(SCC(=O)c2ccc(O)c(O)c2)nnc1-c1ccc(C)cc1`, the Potency was active: 10 µM. For `O=C(c1coc(=O)c(Br)c1)N1CCCc2ccccc21`, the Potency was active: 35.5 µM. With `Cc1ccc(-c2nc3c(c(=O)[nH]c(=O)n3Cc3ccccc3)n2Cc2ccccc2)o1` the “activity, negative = inhibition” value was inactive: -15.6%. For `Cc1oc(-c2ccc(F)cc2)cc1-c1nn2c(-c3ccoc3C)nnc2s1`, the Potency was inconclusive: 31.6 µM [inhibitor, single point]. For `O=c1cc(-c2ccccc2)nc2nc(-c3ccco3)[nH]n12`, the Potency was active: 25.1 µM. With `CCn1c(CSc2nnc3ccccn23)nc2cc(C(=O)O)ccc21` the Potency was active: 10 µM.
